{"source": "patent US20180256537A1", "about": "“METHODS FOR SURVIVAL AND REJUVENATION OF DERMAL FIBROBLASTS USING PKC ACTIVATORS” (priority 2015, published 2018)", "origin": "cited, not measured here", "target": "PKC", "conditions": "read-out: Kd of PKC activation; cited from earlier work", "note": "For at least one compound, name, drawing or mass did not settle the structure.", "data": [{"smiles": "CC(C)=CCC/C(C)=C/CC/C(C)=C/CSc1nc[nH]n1", "note": "[Farnesyl thiotriazole]", "values": [{"measurement": "Kd", "result": 2.5, "unit": "µM"}]}]}
